Measured values published in article PMC12574660.
These are yes or no findings as the source states them, for the method shown. Binding seen in cells or lysates may run through a third protein. Some entries that bind do so weakly or less than the wild type.

The chains behind the UniProt entries cited, without tags or fusion partners.
UniProt E9PZQ0: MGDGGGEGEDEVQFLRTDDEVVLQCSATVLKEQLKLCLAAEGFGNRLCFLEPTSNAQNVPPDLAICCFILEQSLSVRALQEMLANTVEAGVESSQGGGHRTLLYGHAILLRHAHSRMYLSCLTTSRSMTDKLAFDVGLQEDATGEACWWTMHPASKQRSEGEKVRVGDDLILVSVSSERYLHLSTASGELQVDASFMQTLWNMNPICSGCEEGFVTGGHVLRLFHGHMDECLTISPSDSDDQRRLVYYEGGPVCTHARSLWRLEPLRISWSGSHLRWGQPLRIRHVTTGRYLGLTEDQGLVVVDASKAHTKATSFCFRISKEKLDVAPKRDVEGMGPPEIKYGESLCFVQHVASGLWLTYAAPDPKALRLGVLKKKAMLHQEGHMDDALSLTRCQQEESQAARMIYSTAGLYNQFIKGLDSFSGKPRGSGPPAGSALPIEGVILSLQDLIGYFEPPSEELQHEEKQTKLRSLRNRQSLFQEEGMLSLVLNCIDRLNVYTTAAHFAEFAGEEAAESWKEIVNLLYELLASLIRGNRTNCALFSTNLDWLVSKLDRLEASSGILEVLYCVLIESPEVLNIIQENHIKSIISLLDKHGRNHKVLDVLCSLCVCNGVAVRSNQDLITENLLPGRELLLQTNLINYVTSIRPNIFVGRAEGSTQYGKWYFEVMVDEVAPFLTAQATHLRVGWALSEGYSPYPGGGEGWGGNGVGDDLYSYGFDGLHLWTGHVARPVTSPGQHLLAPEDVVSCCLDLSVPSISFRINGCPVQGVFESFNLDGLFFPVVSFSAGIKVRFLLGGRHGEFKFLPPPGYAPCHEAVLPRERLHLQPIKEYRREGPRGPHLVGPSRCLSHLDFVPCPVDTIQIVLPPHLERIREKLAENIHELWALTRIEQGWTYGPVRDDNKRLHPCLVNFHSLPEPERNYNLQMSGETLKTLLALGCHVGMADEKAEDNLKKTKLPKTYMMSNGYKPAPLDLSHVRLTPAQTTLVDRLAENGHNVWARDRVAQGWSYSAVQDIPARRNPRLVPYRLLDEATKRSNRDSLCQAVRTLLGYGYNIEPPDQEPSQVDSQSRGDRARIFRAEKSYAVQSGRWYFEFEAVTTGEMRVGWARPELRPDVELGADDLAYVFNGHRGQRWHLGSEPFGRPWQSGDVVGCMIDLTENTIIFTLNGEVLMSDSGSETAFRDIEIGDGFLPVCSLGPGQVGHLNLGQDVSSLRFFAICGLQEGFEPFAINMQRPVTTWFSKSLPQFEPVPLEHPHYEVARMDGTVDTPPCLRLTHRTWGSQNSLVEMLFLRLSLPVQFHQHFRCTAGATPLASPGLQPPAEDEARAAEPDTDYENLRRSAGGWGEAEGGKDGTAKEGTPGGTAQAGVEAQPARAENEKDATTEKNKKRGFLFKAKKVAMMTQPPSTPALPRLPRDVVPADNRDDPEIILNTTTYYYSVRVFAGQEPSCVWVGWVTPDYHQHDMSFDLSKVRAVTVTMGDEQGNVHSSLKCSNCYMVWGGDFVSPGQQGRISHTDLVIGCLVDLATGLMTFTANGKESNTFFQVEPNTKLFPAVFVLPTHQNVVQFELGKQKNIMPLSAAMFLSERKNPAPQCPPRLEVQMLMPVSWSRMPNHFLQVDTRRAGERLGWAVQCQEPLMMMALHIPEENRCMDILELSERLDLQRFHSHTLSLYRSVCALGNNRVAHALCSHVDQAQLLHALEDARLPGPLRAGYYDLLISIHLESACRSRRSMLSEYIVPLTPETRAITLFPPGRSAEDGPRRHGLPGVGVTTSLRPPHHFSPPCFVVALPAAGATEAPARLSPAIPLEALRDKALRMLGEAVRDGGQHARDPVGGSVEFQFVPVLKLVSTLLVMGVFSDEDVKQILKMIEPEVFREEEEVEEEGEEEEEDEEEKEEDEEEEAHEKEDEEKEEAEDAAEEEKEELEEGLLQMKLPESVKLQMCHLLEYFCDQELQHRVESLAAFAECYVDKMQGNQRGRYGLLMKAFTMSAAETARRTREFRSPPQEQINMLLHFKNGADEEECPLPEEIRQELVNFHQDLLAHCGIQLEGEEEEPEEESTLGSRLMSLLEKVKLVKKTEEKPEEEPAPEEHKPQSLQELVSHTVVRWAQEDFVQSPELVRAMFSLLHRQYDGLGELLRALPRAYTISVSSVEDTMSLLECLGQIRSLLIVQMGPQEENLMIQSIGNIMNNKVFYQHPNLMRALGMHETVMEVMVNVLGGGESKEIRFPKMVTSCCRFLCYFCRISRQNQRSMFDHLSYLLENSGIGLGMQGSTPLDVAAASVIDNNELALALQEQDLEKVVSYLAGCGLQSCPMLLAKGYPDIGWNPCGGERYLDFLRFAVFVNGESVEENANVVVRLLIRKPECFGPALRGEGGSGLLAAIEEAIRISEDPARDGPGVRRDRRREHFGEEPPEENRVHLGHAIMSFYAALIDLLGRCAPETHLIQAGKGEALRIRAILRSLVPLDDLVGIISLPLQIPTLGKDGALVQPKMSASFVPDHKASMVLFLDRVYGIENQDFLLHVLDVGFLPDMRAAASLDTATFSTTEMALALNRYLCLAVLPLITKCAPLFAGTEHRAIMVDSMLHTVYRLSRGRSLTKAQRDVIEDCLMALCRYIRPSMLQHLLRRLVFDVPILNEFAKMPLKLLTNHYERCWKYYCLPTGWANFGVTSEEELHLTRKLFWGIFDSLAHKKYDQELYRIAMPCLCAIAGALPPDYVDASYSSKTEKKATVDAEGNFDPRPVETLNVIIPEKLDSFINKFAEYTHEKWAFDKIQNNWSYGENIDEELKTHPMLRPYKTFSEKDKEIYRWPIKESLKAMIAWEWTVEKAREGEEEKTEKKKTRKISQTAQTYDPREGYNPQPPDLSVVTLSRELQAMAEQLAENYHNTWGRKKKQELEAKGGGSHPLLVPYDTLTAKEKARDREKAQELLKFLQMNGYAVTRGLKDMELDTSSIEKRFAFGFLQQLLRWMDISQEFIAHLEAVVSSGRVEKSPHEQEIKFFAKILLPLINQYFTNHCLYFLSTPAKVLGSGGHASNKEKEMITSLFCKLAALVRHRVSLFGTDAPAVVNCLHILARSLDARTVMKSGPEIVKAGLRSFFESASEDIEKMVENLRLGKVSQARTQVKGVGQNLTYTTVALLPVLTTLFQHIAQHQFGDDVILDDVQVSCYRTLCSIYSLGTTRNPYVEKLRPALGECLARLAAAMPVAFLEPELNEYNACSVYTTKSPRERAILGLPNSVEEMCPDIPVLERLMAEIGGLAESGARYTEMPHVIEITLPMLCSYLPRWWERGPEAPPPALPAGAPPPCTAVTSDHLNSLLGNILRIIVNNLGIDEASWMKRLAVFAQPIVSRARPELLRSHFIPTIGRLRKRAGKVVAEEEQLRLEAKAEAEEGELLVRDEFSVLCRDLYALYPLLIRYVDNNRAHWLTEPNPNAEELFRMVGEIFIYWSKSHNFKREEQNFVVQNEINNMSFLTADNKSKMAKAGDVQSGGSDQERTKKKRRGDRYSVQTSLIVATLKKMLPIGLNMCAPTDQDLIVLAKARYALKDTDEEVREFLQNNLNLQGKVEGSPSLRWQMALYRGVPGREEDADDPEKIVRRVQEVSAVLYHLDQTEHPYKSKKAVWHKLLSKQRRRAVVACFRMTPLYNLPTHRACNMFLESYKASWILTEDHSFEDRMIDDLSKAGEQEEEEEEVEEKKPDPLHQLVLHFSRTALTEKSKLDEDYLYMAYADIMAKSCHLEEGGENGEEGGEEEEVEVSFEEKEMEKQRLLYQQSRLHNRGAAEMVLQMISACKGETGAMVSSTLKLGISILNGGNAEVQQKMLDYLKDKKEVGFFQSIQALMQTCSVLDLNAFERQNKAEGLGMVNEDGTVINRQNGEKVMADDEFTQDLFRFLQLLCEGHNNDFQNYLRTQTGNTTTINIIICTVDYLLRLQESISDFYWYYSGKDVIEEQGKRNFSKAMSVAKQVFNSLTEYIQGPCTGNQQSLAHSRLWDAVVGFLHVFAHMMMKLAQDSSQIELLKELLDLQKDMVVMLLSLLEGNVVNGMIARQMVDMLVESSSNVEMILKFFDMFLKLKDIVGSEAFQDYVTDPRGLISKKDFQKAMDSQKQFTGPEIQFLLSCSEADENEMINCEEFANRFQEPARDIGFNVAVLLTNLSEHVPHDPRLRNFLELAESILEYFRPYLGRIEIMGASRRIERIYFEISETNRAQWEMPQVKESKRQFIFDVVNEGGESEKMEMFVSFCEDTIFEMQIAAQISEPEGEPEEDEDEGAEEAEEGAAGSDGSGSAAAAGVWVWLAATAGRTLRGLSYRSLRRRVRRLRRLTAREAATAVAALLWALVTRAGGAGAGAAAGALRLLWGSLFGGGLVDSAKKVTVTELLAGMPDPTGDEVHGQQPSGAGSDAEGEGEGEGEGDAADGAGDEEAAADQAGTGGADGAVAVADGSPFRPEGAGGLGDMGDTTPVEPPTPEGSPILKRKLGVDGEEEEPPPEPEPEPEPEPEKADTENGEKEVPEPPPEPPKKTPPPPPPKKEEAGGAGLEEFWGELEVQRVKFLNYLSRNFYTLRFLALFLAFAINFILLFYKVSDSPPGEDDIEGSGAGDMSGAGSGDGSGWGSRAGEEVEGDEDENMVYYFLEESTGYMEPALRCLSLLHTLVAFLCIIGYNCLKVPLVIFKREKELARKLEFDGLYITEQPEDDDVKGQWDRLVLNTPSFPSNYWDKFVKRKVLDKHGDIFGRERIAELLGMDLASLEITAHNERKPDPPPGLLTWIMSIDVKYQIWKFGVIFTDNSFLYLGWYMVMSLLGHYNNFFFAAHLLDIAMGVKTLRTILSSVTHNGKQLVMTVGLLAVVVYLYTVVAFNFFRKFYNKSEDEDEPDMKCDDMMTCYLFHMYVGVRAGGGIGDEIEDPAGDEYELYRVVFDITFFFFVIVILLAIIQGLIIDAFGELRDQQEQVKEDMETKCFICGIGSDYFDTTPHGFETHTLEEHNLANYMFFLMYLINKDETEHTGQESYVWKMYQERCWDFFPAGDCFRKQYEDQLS
UniProt P26883: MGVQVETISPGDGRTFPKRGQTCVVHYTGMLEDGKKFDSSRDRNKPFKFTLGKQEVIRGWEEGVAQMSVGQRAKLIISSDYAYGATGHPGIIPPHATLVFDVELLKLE

Molecular target: ryanodine receptor 1 (mouse (endogenous in gastrocnemius muscle)) (UniProt E9PZQ0)
Test: co-IP; RyR1 immunoprecipitated with anti-RyR1 monoclonal antibody and Protein A/G-agarose from gastrocnemius muscle homogenate (50 mM Tris HCl pH 7.4, 0.15 M NaCl, 0.5% Triton X-100), 4°C; blot for calstabin 1; muscle of Nox4 f/f and Nox4 cKO mice, sham or 56 days after SCI

## calstabin 1 (from UniProt P26883 1-108)
  binding: binds
